Measured values: patent US7410966B2, “Use of and some novel imidazopyridines” (AstraZeneca AB, priority 2002, dated 2008)
Counter-ions that a name gives are not always drawn. Some entries share one result that the patent states for a list of compounds.

Target: T1, recombinant human Itk kinase domain fused with GST (Homo sapiens, UniProt Q08881)
T1 construct: recombinant human Itk kinase domain fused with GST (Glutathione S-Transferase); GST (Glutathione S-Transferase); made in house; host or cells: High Five insect cells
T1 sequence (Q08881 363-615 limits assumed): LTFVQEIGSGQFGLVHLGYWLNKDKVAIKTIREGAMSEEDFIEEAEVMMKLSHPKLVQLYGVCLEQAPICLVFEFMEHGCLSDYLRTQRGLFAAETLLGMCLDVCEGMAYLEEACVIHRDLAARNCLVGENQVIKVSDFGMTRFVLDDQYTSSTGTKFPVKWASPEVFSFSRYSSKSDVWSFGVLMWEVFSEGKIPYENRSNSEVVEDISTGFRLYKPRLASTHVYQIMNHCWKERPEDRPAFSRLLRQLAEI
Experiment: Itk LANCE TRF Assay
Format: biochemical
Conditions: 2 μM biotinylated peptide substrate, 50 μM ATP, 50 minutes RT, read-out: Inhibition of Kinase Itk (IC50 μM)
Protocol: The Itk kinase assay utilized recombinant human Itk kinase domain fused with GST (Glutathione S-Transferase). The protein was expressed in High five insect cells, purified in one step on an affinity chromatography glutathione column and stored in 50 mM Tris/HCl (pH 7.6), 150 mM NaCl, 5% (w/v) mannitol, 1 mM DTT, 30% glycerol at −70° C. The kinase substrate used in the assay was a biotinylated peptide derived from the Src-optimal substrate (Nair et al, J. Med. Chem., 38: 4276, 1995; biotin-AEEEIYGEFEAKKKK).
The assay additions were as follows: Test compounds (or controls; 1 μL in 100% DMSO) were added to black 96-well flat-bottomed plates (Greiner 655076) followed by 20 μL Itk in assay buffer and the reaction was started by adding 20 μL ATP and peptide substrate in assay buffer. The assay buffer constitution during, phosphorylation was: 50 mM HEPES (pH 6.8), 10 mM MgCl2, 0.015% Brij 35, 1 mM DTT, 10% glycerol, 160 ng/well Itk, 2 μM peptide substrate and 50 μM ATP. The assay was stopped after 50 minutes (RT) by adding 150 μL ice-cold Stop solution (50 mM Tris/HCl, pH 7.5, 10 mM EDTA, 0.9% NaCl and 0.1% BSA) together with LANCE reagents (2 nM PT66-Eu^3+, Wallac AD0069 and 5 μg/mL Streptavidin-APC, Wallac AD0059. Both concentrations were final in stopped assay solution). The plates were measured on a Wallac 1420 Victor 2 instrument with TRF settings after 1 h incubation, and the ratio (665 signal/615 signal)*10000 was used to calculate the inhibition values. IC50 values were determined using XLfit.

Q: Which IC50 does the source give for `COc1ccccc1CNCC(O)COc1ccc(-c2nc3cc(Br)cnc3[nH]2)cc1` (stereo not drawn) [Example 168, 1-[4-(6-Bromo-3H-imidazo[4,5-b]pyridin-2-yl)phenoxy]-3-[(2-methoxybenzyl)amino]propan-2-ol bis(trifluoroacetate)] here?
A: < 25 µM

Q: Which IC50 does the source give for `Cc1c(Cl)cnc2[nH]c(-c3ccc(NCCN4CCOCC4)c(N)c3)nc12` [Example 252, 4-(6-Chloro-7-methyl-3H-imidazo[4,5-b]pyridin-2-yl)-N^1-(2-morpholin-4-ylethyl)benzene-1,2-diamine] here?
A: < 25 µM

Q: `Clc1cnc2[nH]c(-c3ccc(NCCN4CCOCC4)cc3)nc2c1Cl` [Example 257, N-[4-(6,7-Dichloro-3H-imidazo[4,5-b]pyridin-2-yl)phenyl]-N-(2-morpholin-4-ylethyl)amine] was tested. Which IC50 did it give?
A: < 25 µM

Q: Which IC50 does the source give for `Clc1cnc2nc(-c3ccc(OCCN4CCOCC4)cc3)[nH]c2c1NCc1ccccc1` [Example 211, N-Benzyl-6-chloro-2-4-[2-(4-morpholinyl)ethoxy]phenyl-1H-imidazo[4,5-b]pyridin-7-amine] here?
A: < 25 µM

Q: With `Brc1csc(CNc2ccc(-c3nc4cc(Br)cnc4[nH]3)cc2)c1` [Example 194] as the molecule, how does the IC50 read?
A: < 25 µM

Q: For `Cc1c(Cl)cnc2[nH]c(-c3ccc(NC[C@H]4CCCN4)c(O)c3)nc12` [Example 250, 5-(6-Chloro-7-methyl-3H-imidazo[4,5-b]pyridin-2-yl)-2-{[(2R)-pyrrolidin-2-ylmethyl]amino}phenol], which IC50 is on record?
A: < 25 µM

Q: Which IC50 does the source give for `Brc1cnc2[nH]c(-c3ccc(OCCN4CCN(c5cnccn5)CC4)cc3)nc2c1` [Example 97, 6-Bromo-2-{4-[2-(4-pyrazin-2-ylpiperazin-1-yl)ethoxy]phenyl}-3H-imidazo[4,5-b]pyridine bis(trifluoroacetate)] here?
A: < 25 µM

Q: Which IC50 does the source give for `Nc1ccc(-c2nc3cc(Cl)cnc3[nH]2)s1` [Example 276, [5-(6-Chloro-3H-imidazo[4,5-b]pyridin-2-yl)-2-thienyl]amine] here?
A: < 25 µM

Q: Which IC50 does the source give for `COCCN1CCN(CC(O)COc2ccc(-c3nc4cc(Br)cnc4[nH]3)cc2)CC1` (stereo not drawn) [Example 145, 1-[4-(6-Bromo-3H-imidazo[4,5-b]pyridin-2-yl)phenoxy]-3-[4-(2-methoxyethyl)piperazin-1-yl]propan-2-ol bis(trifluoroacetate)] here?
A: < 25 µM

Q: With `Brc1cnc2[nH]c(-c3ccc(NCc4ccco4)cc3)nc2c1` [Example 189, N-[4-(6-Bromo-3H-imidazo[4,5-b]pyridin-2-yl)phenyl]-N-(2-furylmethyl)amine bis(trifluoroacetate)] as the molecule, how does the IC50 read?
A: < 25 µM

Q: For `Cc1c(Br)cnc2nc(-c3ccc(NS(=O)(=O)c4ccc(OCCC#N)cc4)cc3)[nH]c12` [Example 265, N-[4-(6-Bromo-7-methyl-1H-imidazo[4,5-b]pyridin-2-yl)phenyl]-4-(2-cyanoethoxy)benzenesulfonamide], which IC50 is on record?
A: < 25 µM

Q: Which IC50 does the source give for `CC(CO)NCCOc1ccc(-c2nc3cc(Br)cnc3[nH]2)cc1` (stereo not drawn) [Example 77, 2-({2-[4-(6-Bromo-3H-imidazo[4,5-b]pyridin-2-yl)phenoxy]ethyl}amino)propan-1-ol bis(trifluoroacetate)] here?
A: < 25 µM

Q: Which IC50 does the source give for `Brc1cnc2[nH]c(-c3ccc(OCCNCc4ccncc4)cc3)nc2c1` [Example 82, N-{2-[4-(6-Bromo-3H-imidazo[4,5-b]pyridin-2-yl)phenoxy]ethyl}-N-(pyridin-4-ylmethyl)amine bis(trifluoroacetate)] here?
A: < 25 µM

Q: `Brc1cnc2[nH]c(-c3cc[nH]n3)nc2c1` [Example 11, 6-Bromo-2-(1H-pyrazol-3-yl)-3H-imidazo[4,5-b]pyridine] was tested. Which IC50 did it give?
A: < 25 µM

Q: With `CC(Nc1c(Cl)cnc2[nH]c(-c3ccc(OCCN4CCOCC4)cc3)nc12)c1ccccc1` (stereo not drawn) [Example 237, 6-Chloro-2-[4-(2-morpholin-4-ylethoxy)phenyl]-N-(1-phenylethyl)-3H-imidazo[4,5-b]pyridin-7-amine] as the molecule, how does the IC50 read?
A: < 25 µM

Q: How did the IC50 turn out when `CC(NCCOc1ccc(-c2nc3cc(Br)cnc3[nH]2)cc1)c1ccccc1` (stereo not drawn) [Example 84, N-{2-[4-(6-Bromo-3H-imidazo[4,5-b]pyridin-2-yl)phenoxy]ethyl}-N-(1-phenylethyl)amine bis(trifluoroacetate)] was run?
A: < 25 µM

Q: Which IC50 does the source give for `OC(COc1ccc(-c2nc3cc(Br)cnc3[nH]2)cc1)CN1CCCCC1` (stereo not drawn) [Example 125, 1-[4-(6-Bromo-3H-imidazo[4,5-b]pyridin-2-yl)phenoxy]-3-piperidin-1-ylpropan-2-ol] here?
A: < 25 µM

Q: Which IC50 does the source give for `CC(=O)OCc1ccc(CNc2ccc(-c3nc4cc(Br)cnc4[nH]3)cc2)o1` [Example 198, [5-({[4-(6-Bromo-3H-imidazo[4,5-b]pyridin-2-yl)phenyl]amino}methyl)-2-furyl]methyl acetate bis(trifluoroacetate)] here?
A: < 25 µM

Q: For `ClCCOc1ccc(-c2nc3cc(Br)cnc3[nH]2)cc1` [Example 49, 6-Bromo-2-[4-(2-chloroethoxy)phenyl]-3H-imidazo[4,5-b]pyridine], which IC50 is on record?
A: < 25 µM

Q: Which IC50 does the source give for `Cc1c(Br)cnc2nc(-c3ccc(N)cc3)[nH]c12` [Example 260, 4-(6-Bromo-7-methyl-1H-imidazo[4,5-b]pyridin-2-yl)aniline] here?
A: < 25 µM

Q: `Brc1cnc2[nH]c(-c3ccc(OCCNCC4CCCO4)cc3)nc2c1` (stereo not drawn) [Example 51, N-{2-[4-(6-Bromo-3H-imidazo[4,5-b]pyridin-2-yl)phenoxy]ethyl}-N-(tetrahydrofuran-2-ylmethyl)amine] was tested. Which IC50 did it give?
A: < 25 µM

Q: With `CN(CCO)CC(O)COc1ccc(-c2nc3cc(Br)cnc3[nH]2)cc1` (stereo not drawn) [Example 131, 1-[4-(6-Bromo-3H-imidazo[4,5-b]pyridin-2-yl)phenoxy]-3-[(2-hydroxyethyl)(methyl)amino]propan-2-ol bis(trifluoroacetate)] as the molecule, how does the IC50 read?
A: < 25 µM

Q: With `O[C@H]1CCCC[C@@H]1NCCOc1ccc(-c2nc3cc(Br)cnc3[nH]2)cc1` [Example 98] as the molecule, how does the IC50 read?
A: < 25 µM

Q: `Cc1cnc2[nH]c(-c3ccc(OC(C)C)cc3)nc2c1` [Example 36, 2-(4-Isopropoxyphenyl)-6-methyl-3H-imidazo[4,5-b]pyridine trifluoroacetate] was tested. Which IC50 did it give?
A: < 25 µM

Q: How did the IC50 turn out when `OC1CCN(CC(O)COc2ccc(-c3nc4cc(Br)cnc4[nH]3)cc2)C1` (stereo not drawn) [Example 124, 1-{3-[4-(6-Bromo-3H-imidazo[4,5-b]pyridin-2-yl)phenoxy]-2-hydroxypropyl}pyrrolidin-3-ol] was run?
A: < 25 µM

Q: With `COc1cc(-c2nc3cc(Br)cnc3[nH]2)ccc1OCc1ccccc1` [Example 29, 2-[4-(Benzyloxy)-3-methoxyphenyl]-6-bromo-3H-imidazo[4,5-b]pyridine trifluoroacetate] as the molecule, how does the IC50 read?
A: < 25 µM

Q: `CNc1c(Cl)cnc2nc(-c3ccc(OCCN4CCOCC4)cc3)[nH]c12` [Example 227] was tested. Which IC50 did it give?
A: < 25 µM

Q: For `Clc1cnc2nc(-c3ccc(OCCN4CCOCC4)cc3)[nH]c2c1Nc1ccccc1` [Example 222, 6-Chloro-2-{4-[2-(4-morpholinyl)ethoxy]phenyl}-N-phenyl-1H-imidazo[4,5-b]pyridin-7-amine], which IC50 is on record?
A: < 25 µM

Q: Which IC50 does the source give for `O=[N+]([O-])c1cc(-c2nc3cc(Br)cnc3[nH]2)ccc1OCCN1CCOCC1` [Example 245, 6-Bromo-2-[4-(2-morpholin-4-ylethoxy)-3-nitrophenyl]-3H-imidazo[4,5-b]pyridine] here?
A: < 25 µM

Q: With `Brc1cnc2[nH]c(-c3ccc(OCCN4CCCC4)cc3)nc2c1` [Example 52, 6-Bromo-2-[4-(2-pyrrolidin-1-ylethoxy)phenyl]-3H-imidazo[4,5-b]pyridine bis(trifluoroacetate)] as the molecule, how does the IC50 read?
A: < 25 µM
